Assay results taken from patent publication US11246907B2, “Immunosuppressive agents and their use in therapy” (Norwegian University of Science and Technology, priority 2013, dated 2022).
Entries after “also recorded” stand apart in the source; their conditions may differ. At least one peptide structure holds a part that was inferred or is arguable (an end, a ring closure or a residue). Ends that are not written are not given here.

Tests used:
PACT = experiment: Western blot of PACT protein levels in HaCaT cells; type: cell-based, human
Description: Protein levels were corrected for loading differences (β-tubulin) and normalized to untreated control cells. […] Bar, 5 μm.
The multiple myeloma cell lines JJN-3 (gift from J. Ball, University of Birmingham, United Kingdom) were grown in RPMI 1640 (Sigma-Aldrich, Schnelldorf, Germany) supplemented with 10% FCS, 2 mM glutamine (Sigma-Aldrich), 2.5 μg/ml amphotericin B (Sigma-Aldrich) and 100 μg/ml gentamicin (Invitrogen, Carlsbad, Calif., USA). HaCaT cells (spontaneously transformed keratinocytes) were cultured in DMEM (Sigma-Aldrich) containing FCS, glutamine, amphotericin B, and gentamicin. All cells were cultured at 37° C. in a humidified atmosphere of 5% CO2.
Mononucleated cells were seeded and stimulated as described above. JJN-3 cells were treated with ATX-101 (6 μM) for 4 h. HaCaT cells were treated with ATX-101 (12 μM), polylC (2 μg/ml), and LPS (100 ng/ml) for 4 h. […] The proteins were visualized with the Odyssey infrared imaging system (LI-COR) and quantified using Odyssey Image Studio V2. […]

[1] = system: peripheral blood monocytes; experiment: Multiplex (27-plex) cytokine secretion of TLR-ligand stimulated peripheral blood monocytes; type: cell-based, human; conditions: 4 μM, 4 h, LPS or polyIC
Description: Measured cytokine levels were normalized to cytokine levels from monocytes stimulated with TLR ligand alone. A two fold or higher increase in cytokine level after TLR stimulation was defined as cytokine induction. […] Isolated monocytes were stimulated with 10 ng/ml LPS and 40 μg/ml polyIC alone and in combination with 4 μM ATX-101 for 4 h. […] DRAQS was used for nuclear staining. Bar, 5 μm.
Data is from one representative donor out of three; and (B-E) show multiplex analysis of cytokine levels produced by peripheral blood monocytes stimulated with 10 ng/ml LPS (B and D, same donor) and 40 μg/ml polyIC (C and E, same donor) after 4 h. (B and C) Stimulated-monocytes were treated with 4 μM ATX-101, 10 μM SB203580 (p38 MAPK inhibitor), and combination of ATX-101 and SB203580. (D and E) Stimulated-monocytes were treated with 4 μM ATX-101, 5 and 10 μM LY294002 (PI3K class I inhibitor), and combination of ATX-101 and LY294002. Measured cytokine levels were normalized to cytokine levels from monocytes stimulated with TLR ligand alone. […]
(§1) Measured cytokine levels were normalized to cytokine levels from monocytes stimulated with TLR ligand alone. […]
as §1, §1

Sequence: MDRALVKWKKKRKIRRRRRRRRRRR [ATX-A, reference compound]
- PACT protein levels, effect compared with ATX-101 (PACT): less effect
- decrease of cytokine secretion compared to ATX-101 [1]: unable or less efficient in decreasing the secretion of cytokines compared to ATX-101; also recorded: reduced cytokine secretion far less than ATX-101
